Measurements reported in PubChem BioAssay AID504793 (Drosophila RNAi Screening Center, 2011).

- Test: 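Whole-genome screen for parts of the DNA damage checkpoint at G2/M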 (primary screen)
- Cells: Drosophila S2R+ cells
- Reagent: long dsRNA against Drosophila genes, about 0.25 µg dsRNA per well
- Time to read-out: 4 days of dsRNA, then 4 hours of drug before read-out
- Treatment: doxorubicin 0.5 µM for 4 hours to cause double-strand breaks, in cells also given a low, harmless dose of dsRNA against nbs to sensitise the assay
- Measured: 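Per-well count of mitotic cells stained for phospho-histone H3 after doxorubicin exposure, used as mitotic index; counts are raw and not normalised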
- Reading the numbers: mitotic cells: higher = more cells in mitosis, weaker G2 arrest
- Active means: 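Genes are called active only when high mitotic counts were reproduced with independent dsRNAs and mitosis was checked for delay without damage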
- Calls: active = confirmed in follow-up tests; inactive = not confirmed
In all, the deposit lists about 23,000 reagents; shown is a random part of those that have a named target and a result. Over the whole deposit, 62 (0.27%) are marked active. 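Calls come from follow-up tests whose scores are not deposited, so confirmed genes may have low counts here; counts are not normalised per plate.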 Raw values vary from plate to plate and are shown uncorrected. Names joined by + are all predicted targets of the reagent. No sequences are given here.

CG13130 (retired record) [DRSC02226]: mitotic cells, replicate 1 = 13; Outcome = inactive
CG13130 (retired record) [DRSC25021]: mitotic cells, replicate 1 = 6; Outcome = inactive
dmrt11E [DRSC19715]: mitotic cells, replicate 1 = 24; Outcome = inactive
dmrt11E [DRSC23784]: mitotic cells, replicate 1 = 9; Outcome = inactive
Reck [DRSC10504]: mitotic cells, replicate 1 = 6; Outcome = inactive
Reck [DRSC10505]: mitotic cells, replicate 1 = 3; Outcome = inactive
amd [DRSC02608]: mitotic cells, replicate 1 = 6; Outcome = inactive
amd [DRSC03483]: mitotic cells, replicate 1 = 6; Outcome = inactive
fax [DRSC11345]: mitotic cells, replicate 1 = 16; Outcome = inactive
fax [DRSC27842]: mitotic cells, replicate 1 = 6; Outcome = inactive
Miro [DRSC15795]: mitotic cells, replicate 1 = 4; Outcome = inactive
Taf5 [DRSC07562]: mitotic cells, replicate 1 = 6; Outcome = inactive
Taf5 [DRSC29351]: mitotic cells, replicate 1 = 5; Outcome = inactive
Coq7 [DRSC29047]: mitotic cells, replicate 1 = 6; Outcome = inactive
RIOK1 [DRSC09853]: mitotic cells, replicate 1 = 5; Outcome = inactive
CG12546 + CG14452 [DRSC11709]: mitotic cells, replicate 1 = 3; Outcome = inactive
CG12546 + CG14452 [DRSC29979]: mitotic cells, replicate 1 = 8; Outcome = inactive
lbe [DRSC16985]: mitotic cells, replicate 1 = 9; Outcome = inactive
lbe [DRSC23597]: mitotic cells, replicate 1 = 5; Outcome = inactive
GstE13 [DRSC06083]: mitotic cells, replicate 1 = 6; Outcome = inactive
Cdc2rk [DRSC07590]: mitotic cells, replicate 1 = 9; Outcome = inactive
Cdc2rk [DRSC29758]: mitotic cells, replicate 1 = 7; Outcome = inactive
Pex11c [DRSC14677]: mitotic cells, replicate 1 = 10; Outcome = inactive
CG12535 [DRSC17838]: mitotic cells, replicate 1 = 10; Outcome = inactive
ms(3)76Cc [DRSC11071]: mitotic cells, replicate 1 = 8; Outcome = inactive
ms(3)76Cc [DRSC21630]: mitotic cells, replicate 1 = 8; Outcome = inactive
Tengl3 [DRSC22288]: mitotic cells, replicate 1 = 11; Outcome = inactive
Tengl3 [DRSC27773]: mitotic cells, replicate 1 = 3; Outcome = inactive
fd3F (retired record) [DRSC23032]: mitotic cells, replicate 1 = 17; Outcome = inactive
spen [DRSC00839]: mitotic cells, replicate 1 = 2; Outcome = inactive
spen [DRSC37650]: mitotic cells, replicate 1 = 6; Outcome = inactive
Kap3 [DRSC19426]: mitotic cells, replicate 1 = 4; Outcome = inactive
Kap3 [DRSC25680]: mitotic cells, replicate 1 = 2; Outcome = inactive
CG32301 [DRSC08613]: mitotic cells, replicate 1 = 8; Outcome = inactive

Entries above whose gene name begins with K or k (2):
Kap3 [DRSC19426]: mitotic cells, replicate 1 = 4; Outcome = inactive
Kap3 [DRSC25680]: mitotic cells, replicate 1 = 2; Outcome = inactive
